Drawing on patent US20240358762A1 (UNIVERSITY OF PITTSBURGH OF THE COMMONWEALTH SYSTEM OF …, published 2024), this text covers binding for one molecule.

Results are given in words; binding and its absence hold for the method and conditions named. Some binding calls cover weakened binding; strength is not graded here.

In this experiment the target is T1, human PRTG fibronectin type-III 1 domain (human) (UniProt Q2VWP7).
T1 sequence (looked up): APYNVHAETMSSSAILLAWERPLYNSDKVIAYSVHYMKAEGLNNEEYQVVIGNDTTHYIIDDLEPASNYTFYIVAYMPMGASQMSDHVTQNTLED
Put plainly: ELISA.

B1: VH domain Clone #1 (other)
VH: EVQLVESGGGLVQPGGSLRLSCKASGFTVSSNYMHWVRQAPGKGLEWIGGINHSGRTNYKSSLKSRVTISRDNSKNTLYLQMNSLRAEDTAVYYCARLPPSRDGYNYADYWGQGTLVTVSS
notes: also called #1 (VH domain)
As to B1, the binding entry is reported as “binds”.
